Library screen at single concentrations

The chains behind the UniProt entries cited, without tags or fusion partners.
UniProt P9WFT3, whole entry: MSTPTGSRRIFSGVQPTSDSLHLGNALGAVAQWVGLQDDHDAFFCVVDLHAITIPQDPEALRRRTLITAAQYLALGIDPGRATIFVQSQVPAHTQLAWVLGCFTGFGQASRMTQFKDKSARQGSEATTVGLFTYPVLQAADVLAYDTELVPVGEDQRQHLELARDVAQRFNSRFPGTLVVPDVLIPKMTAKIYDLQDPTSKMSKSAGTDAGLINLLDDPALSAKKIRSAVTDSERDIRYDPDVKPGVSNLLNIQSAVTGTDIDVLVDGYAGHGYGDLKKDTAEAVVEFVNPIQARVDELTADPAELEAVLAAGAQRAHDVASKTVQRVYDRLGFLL

The filed quantity is “Percent Effect” (%). The record does not define 0% and 100%; most values in the screen are far below 50% and negative numbers occur (in some assays of this library far below -100). The compounds are a random part of those screened.

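Enzyme assay of tryptophanyl-tRNA synthetase; the read-out is not stated. Target: Tryptophan-tRNA ligase, Mycobacterium tuberculosis (UniProt P9WFT3). Concentration: 10 µM. Higher most likely means stronger inhibition; the record gives no direction and few retests gave an IC50. Size under these conditions: about 65,000 compounds, about 64 of them at 50% or above in at least one test.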

compound,percent effect
CCNC(=O)N1C[C@@H]2OCC(=O)N(C(C)C)[C@@H]2C1,-3.585
CC(C)N1CCOCC2(CN(Cc3ccco3)CCO2)C1 (centres unmarked),-3.207
CCc1ccccc1-c1cc(OC)nc(N)n1,-1.932
OC1CCN(c2cncc(CCC3CCCN3)n2)CC1 (centres unmarked),-10.09
Cc1nc(CN2CCN(CCCc3ccccc3)CC2)no1,-0.361
Cc1nc(CN2CCCC(NCc3csc(C(C)(C)C)n3)C2)no1 (centres unmarked),-1.558
Cc1cccc(CNC[C@H]2Cn3ccnc3CO2)n1,2.807
CC(C)(C)c1nnc(CN2CCCC(Cn3cncn3)C2)o1 (centres unmarked),5.865
CCn1cc(S(=O)(=O)NCc2ccnc(-n3ccnc3)c2)cn1,-3.374
O=C(NCc1cccnc1)C1=NOC2(CCN(C3CCOCC3)C2)C1 (centres unmarked),1.627
Cc1cccc(-c2noc(C)c2C(=O)NC2CCCOC2)c1 (centres unmarked),-3.298
COc1ccc(NC(=O)Cn2nc(C)c(C(C)=O)c2C)cc1,-5.699
CCOC(=O)C1CCN(CCCc2nnnn2-c2ccccc2)CC1,-1.421
Cc1sc(CNS(N)(=O)=O)nc1-c1ccc(Cl)cc1,-2.667
O=C(NCc1cc[nH]n1)NCC(O)c1ccc(F)cc1 (centres unmarked),18.95
Nc1nc(CN2CCCC2Cn2cncn2)nc2ccccc12 (centres unmarked),2.032
CCN1CC2(CCCCN2C(=O)c2ccsc2)CC1=O (centres unmarked),1.99
Cc1cc(C)c(CNC(=O)NCCCNc2ccccn2)c(=O)[nH]1,6.225
O=C(NC1CC1)[C@H]1C[C@@H]2CCN(CCc3ccccc3)C[C@H]2O1,-1.762
CS(=O)(=O)CCCN1CCN(C(C#N)c2ccccc2)CC1 (centres unmarked),-0.3215
Cc1nc(N2CCN(C(=O)c3ccccc3)CC2)cc(-n2ccnc2)n1,15.7
CCn1ccnc1CN1CCCN(C(=O)Cn2nc(C)cc2C)CC1,-2.58
CCn1ncc(NC(=O)c2cc(C3CC3)nc3c2c(C)nn3C)c1C,0.25
CC(Cc1cccc(Cl)c1)NC(=O)Nc1cnn(CC(N)=O)c1 (centres unmarked),-3.45
COc1cc2c(cc1-c1nc3c(cnn3C(C)C(C)C)[nH]1)OCO2 (centres unmarked),0.9726
Cc1c(C(=O)NC(C)C)nnn1-c1cccc(C(F)(F)F)c1,4.456
Cc1c[nH]c(CN2CC[C@@]3(O)CCN(C(=O)C4CCCC4)C[C@H]3C2)n1,1.554
Cn1cc(NS(=O)(=O)CCOc2ccc(F)cc2)cn1,0.4078
Cc1nc(C)c(C(=O)N2CCc3[nH]nc(COc4ccccc4)c3C2)s1,-1.32
Cc1ccnc(CC(C)N(C)Cc2ccc3c(c2)OCCO3)c1 (centres unmarked),1.941
Cc1ccccc1OC1CN(Cc2c(C)nc3ccccn23)C1,0
CC1CN(C(=O)c2sccc2Br)CCO1 (centres unmarked),-4.956
Cc1ncsc1C(=O)N[C@@H](Cc1ccccc1)C(N)=O,-0.9441
COCCOc1ncccc1C(=O)N1CCCC1Cn1cc(C)cn1 (centres unmarked),-0.6152
CC(C)(C)c1ncc(CNCC2CN(C3CC3)CCO2)s1 (centres unmarked),-0.5874
COc1cc(CNc2cnn(CCN3CCOCC3)c2)cc(OC)c1,-2.227
Cc1ccc(CN(C(=O)c2cccc(NC(N)=O)c2)C2CC2)o1,0.4955
OCCN1CCN(Cc2cnc3c(-c4ccccc4)cnn3c2)CC1,49.34
COCc1nc(C(=O)OCC2CCN(c3ccccc3)C2)cs1 (centres unmarked),7.584
COC(=O)c1cccc(-c2c[nH]c(C)n2)c1,1.867
CCOc1ccnc(N2CCCN(c3nc(CC)ns3)CC2)n1,-5.004
Cc1ccc(N2CCN(C(=O)CCC(F)(F)F)C(C)C2)cc1 (centres unmarked),-5.678
COC(=O)C(NC(=O)C1CC1)c1cc(F)ccc1F (centres unmarked),-10.59
CN1CCN(C(=O)c2ccc(Cn3cc(Br)cn3)cc2)CC1,-2.279
Fc1cccc(Cl)c1CNCCOc1ccccn1,-2.346
COCCCN(Cc1cnc(-c2ccccn2)nc1)C1CCN(C)CC1,-7.048
COCC(=O)N1CCC(c2nccn2CC2CC2)CC1,2.399

Repeated from the top, 3 entries:

Result for CCNC(=O)N1C[C@@H]2OCC(=O)N(C(C)C)[C@@H]2C1 was -3.585%.
Result for CC(C)N1CCOCC2(CN(Cc3ccco3)CCO2)C1 (centres unmarked) was -3.207%.
Result for CCc1ccccc1-c1cc(OC)nc(N)n1 was -1.932%.

From ChEMBL document CHEMBL3988442, “University of Dundee, Small-Polar-MMV Screening Library” (2021).